The values that follow come from PMC11603163.

These are yes or no findings as the source states them, for the method shown. In cells and extracts the contact can be indirect. Here binding means that the protein was enriched with, or labelled near, the bait; the list need not be complete. A no says only that the protein was not detected with the bait. Where a sequence is shown, tags or fusion partners need not be part of it.

In experiment [1] the target is T1, 3xF-tagged CLSY1 (Arabidopsis) (UniProt Q9M297).
T1 sequence: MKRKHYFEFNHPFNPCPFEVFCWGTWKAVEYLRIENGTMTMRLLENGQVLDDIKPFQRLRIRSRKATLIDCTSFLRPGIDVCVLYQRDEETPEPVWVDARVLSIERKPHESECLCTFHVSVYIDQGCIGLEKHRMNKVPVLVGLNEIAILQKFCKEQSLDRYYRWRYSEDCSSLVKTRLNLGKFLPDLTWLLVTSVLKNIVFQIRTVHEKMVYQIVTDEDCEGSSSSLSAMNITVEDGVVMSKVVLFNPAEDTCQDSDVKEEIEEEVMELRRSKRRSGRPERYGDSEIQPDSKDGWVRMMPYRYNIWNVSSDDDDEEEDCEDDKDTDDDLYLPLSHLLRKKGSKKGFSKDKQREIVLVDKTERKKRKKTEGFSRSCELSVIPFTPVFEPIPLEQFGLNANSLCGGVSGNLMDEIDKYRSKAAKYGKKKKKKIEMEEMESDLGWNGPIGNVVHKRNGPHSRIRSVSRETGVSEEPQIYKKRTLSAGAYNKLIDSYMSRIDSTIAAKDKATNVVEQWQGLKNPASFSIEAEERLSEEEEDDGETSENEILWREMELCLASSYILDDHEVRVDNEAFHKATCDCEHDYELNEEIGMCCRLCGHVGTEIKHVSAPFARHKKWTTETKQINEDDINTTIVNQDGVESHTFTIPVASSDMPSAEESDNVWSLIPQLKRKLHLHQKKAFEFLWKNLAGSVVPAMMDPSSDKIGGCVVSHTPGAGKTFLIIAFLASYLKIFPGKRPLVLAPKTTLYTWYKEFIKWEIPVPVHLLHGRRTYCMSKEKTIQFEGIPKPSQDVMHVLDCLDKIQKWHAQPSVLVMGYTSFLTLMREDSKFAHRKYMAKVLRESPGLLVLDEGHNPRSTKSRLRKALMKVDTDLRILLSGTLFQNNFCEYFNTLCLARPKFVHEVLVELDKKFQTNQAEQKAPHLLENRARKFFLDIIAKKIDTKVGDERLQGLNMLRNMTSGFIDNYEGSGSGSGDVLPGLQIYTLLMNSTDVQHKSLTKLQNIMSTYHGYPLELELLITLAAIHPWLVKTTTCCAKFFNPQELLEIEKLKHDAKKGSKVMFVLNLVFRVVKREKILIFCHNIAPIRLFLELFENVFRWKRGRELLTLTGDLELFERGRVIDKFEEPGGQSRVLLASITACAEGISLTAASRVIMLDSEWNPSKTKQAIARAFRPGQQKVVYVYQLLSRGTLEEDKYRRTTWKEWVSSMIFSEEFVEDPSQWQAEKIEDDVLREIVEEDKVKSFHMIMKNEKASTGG
Nature of the experiment: affinity purification with mass spectrometry; anti-Flag M2 magnetic beads on 10 g flowers of 3xF-tagged CLSY lines in their clsy mutant backgrounds; elution with 3x-FLAG peptide; compared to non-transgenic wild-type controls.

In experiment [2] the target is T2, 3xF-tagged CLSY4 (Arabidopsis) (UniProt Q9LK10).
T2 sequence: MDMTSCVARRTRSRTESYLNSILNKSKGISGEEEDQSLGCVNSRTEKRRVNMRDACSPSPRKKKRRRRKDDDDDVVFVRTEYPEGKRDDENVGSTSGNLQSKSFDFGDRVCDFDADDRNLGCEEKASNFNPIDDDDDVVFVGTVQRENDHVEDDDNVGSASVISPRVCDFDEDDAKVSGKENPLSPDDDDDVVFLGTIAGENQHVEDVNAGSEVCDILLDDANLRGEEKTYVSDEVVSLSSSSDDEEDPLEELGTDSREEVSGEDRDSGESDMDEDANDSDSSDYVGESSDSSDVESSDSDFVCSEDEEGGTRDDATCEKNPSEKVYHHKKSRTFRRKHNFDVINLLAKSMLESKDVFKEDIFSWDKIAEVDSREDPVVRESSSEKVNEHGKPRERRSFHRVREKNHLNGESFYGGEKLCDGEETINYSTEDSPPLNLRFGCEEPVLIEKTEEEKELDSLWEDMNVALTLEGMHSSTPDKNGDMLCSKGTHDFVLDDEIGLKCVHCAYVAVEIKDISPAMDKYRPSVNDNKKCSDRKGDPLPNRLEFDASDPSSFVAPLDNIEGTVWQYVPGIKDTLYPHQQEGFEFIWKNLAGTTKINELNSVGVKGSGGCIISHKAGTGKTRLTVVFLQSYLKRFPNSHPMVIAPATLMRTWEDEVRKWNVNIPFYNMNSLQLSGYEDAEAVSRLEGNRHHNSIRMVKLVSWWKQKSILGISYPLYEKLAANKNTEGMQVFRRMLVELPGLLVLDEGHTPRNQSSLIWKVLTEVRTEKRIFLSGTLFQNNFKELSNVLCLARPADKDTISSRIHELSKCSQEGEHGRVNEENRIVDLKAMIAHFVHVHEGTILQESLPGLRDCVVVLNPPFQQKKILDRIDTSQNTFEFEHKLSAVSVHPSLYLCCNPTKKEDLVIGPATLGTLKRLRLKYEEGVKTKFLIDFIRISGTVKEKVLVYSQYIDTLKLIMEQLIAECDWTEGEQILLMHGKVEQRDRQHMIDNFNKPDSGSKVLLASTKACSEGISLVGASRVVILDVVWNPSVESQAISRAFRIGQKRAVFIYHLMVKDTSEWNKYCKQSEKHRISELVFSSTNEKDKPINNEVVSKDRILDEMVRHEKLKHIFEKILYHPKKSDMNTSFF
Described as above.

As for “RNA-… RNA POLYMERASE 2 (RDR2) (from UniProt O82504 1-1133)”, the binding entry in experiment [1] and in experiment [2] was “binds” each time.

B1: CLASSY 2 (CLSY2) (protein, UniProt F4K493 1-1261)
chain: MKKRGFYNLKHPFDPCPFEFFCSGTWKPVEYMRIEDGMMTIRLLENGYVLEDIRPFQRLRLRSRKAALSDCICFLRPDIDVCVLYRIHEDDLEPVWVDARIVSIERKPHESECSCKINVRIYIDQGCIGSEKQRINRDSVVIGLNQISILQKFYKEQSTDQFYRWRFSEDCTSLMKTRLSLGKFLPDLSWLTVTSTLKSIVFQIRTVQTKMVYQIVTDEEGSSSTLSSMNITLEDGVSLSKVVKFNPADILDDSQDLEIKQETDYYQEEDEVVELRRSKRRNVRPDIYTGCDYEPDTIDGWVRMMPYQFGKCAVNVESDEDEDDNNEDGDTNDDLYIPLSRLFIKKKKTNSREAKPKSRKGEIVVIDKRRVHGFGRKERKSELSVIPFTPVFEPIPLEQFGLNANSFGGGGSFSRSQYFDETEKYRSKGMKYGKKMTEMEEMMEADLCWKGPNQVKSFQKRTSRSSRSVAPKTEDSDEPRVYKKVTLSAGAYNKLIDTYMNNIESTIAAKDEPTSVVDQWEELKKTNFAFKLHGDMEKNLSEDGEGETSENEMLWREMELCLASSYILDDNEVRVDNEAFEKARSGCEHDYRLEEEIGMCCRLCGHVGSEIKDVSAPFAEHKKWTIETKHIEEDDIKTKLSHKEAQTKDFSMISDSSEMLAAEESDNVWALIPKLKRKLHVHQRRAFEFLWRNVAGSVEPSLMDPTSGNIGGCVISHSPGAGKTFLIIAFLTSYLKLFPGKRPLVLAPKTTLYTWYKEFIKWEIPVPVHLIHGRRTYCTFKQNKTVQFNGVPKPSRDVMHVLDCLEKIQKWHAHPSVLVMGYTSFTTLMREDSKFAHRKYMAKVLRESPGLLVLDEGHNPRSTKSRLRKALMKVGTDLRILLSGTLFQNNFCEYFNTLCLARPKFIHEVLMELDQKFKTNHGVNKAPHLLENRARKLFLDIIAKKIDASVGDERLQGLNMLKNMTNGFIDNYEGSGSGSGDALPGLQIYTLVMNSTDIQHKILTKLQDVIKTYFGYPLEVELQITLAAIHPWLVTSSNCCTKFFNPQELSEIGKLKHDAKKGSKVMFVLNLIFRVVKREKILIFCHNIAPIRMFTELFENIFRWQRGREILTLTGDLELFERGRVIDKFEEPGNPSRVLLASITACAEGISLTAASRVIMLDSEWNPSKTKQAIARAFRPGQQKVVYVYQLLSRGTLEEDKYRRTTWKEWVSCMIFSEEFVADPSLWQAEKIEDDILREIVGEDKVKSFHMIMKNEKASTG
Take B1: the binding entry in experiment [1] and in experiment [2] was “no binding” each time.

B2: SAWADEE HOMEODOMAIN HOMOLOG 1 (SHH1) (protein, UniProt Q9XI47 1-258)
chain: MAASDDSSHYFTEFTLSEIVDMENLYKELGDQSLHKDFCQTVASTFSCSVNRNGKSSITWKQVQIWFQEKLKHQSQPKSKTLPSPPLQIHDLSNPSSYASNASNATFVGNSTFVQTRKGKASDLADLAFEAKSARDYAWYDVSSFLTYRVLRTGELEVRVRFSGFDNRHDEWVNVKTSVRERSIPVEPSECGRVNVGDLLLCFQEREDQALYCDGHVLNIKRGIHDHARCNCVFLVRYELDNTEESLGLERICRRPEE
As to B2, the binding entry in experiment [1] was “binds”; in experiment [2], “no binding”.
